Assay results reported in publication PMC6791870, “Switch of the interactions between the ribosomal stalk and EF1A in the GTP- and GDP-bound conformations” (Scientific Reports, 2019).
Results are given in words; binding and its absence hold for the method and conditions named.

Biological target: T1, 11-mer peptide lacking the C-terminal 3 amino acids of the 14-mer peptide (PhoP1C14∆3), FITC-labelled (P. horikoshii)
T1 sequence (peptide, fluorescein isothiocyanate (FITC) at the N-terminus): SEEEALAGLSA
Experiment: fluorescence polarisation; FITC-labelled peptide (50 nM) with 0-160 µM PhoEF1A•GTP•PfuPelota complex in FP buffer (20 mM HEPES-KOH pH 7.6, 10 mM MgCl2, 150 mM KCl, 0.1 mg/ml BSA), 25 °C; one site specific binding fit; both purified

binding: no binding (tested: 160 µM)
B1: PhoEF1A•GTP•PfuPelota complex (complex, UniProt O59153 1-428; Q8U150 1-356)
chain 1: MPKEKPHVNIVFIGHVDHGKSTTIGRLLYDTGNIPETIIKKFEEMGEKGKSFKFAWVMDRLKEERERGITIDVAHTKFETPHRYITIIDAPGHRDFVKNMITGASQADAAVLVVAATDGVMPQTKEHAFLARTLGIKHIIVTINKMDMVNYDQKVFEKVKAQVEKLLKTLGYKDFPVIPTSAWNGDNVVKKSDKMPWYNGPTLIEALDQIPEPEKPIDKPLRIPIQDVYSIKGVGTVPVGRVETGKLKVGDVVIFEPASTIFHKPIQGEVKSIEMHHEPLQEALPGDNIGFNVRGVSKNDIKRGDVAGHTDKPPTVVRTKDTFKAQIIVLNHPTAITVGYSPVLHAHTAQIPVRFEQILAKVDPRTGNIVEENPQFIKTGDSAIVVLRPMKPVVLEPVKEIPQLGRFAIRDMGMTIAAGMVISIQKGE
chain 2: MEILEEKPKEGKIKIKAETLDDLWHLYHIISEGDVVYAKTLRKQAQRSDSLRPEKVEAVPVFLGIKAEKINLHRFANQLRITGPIIYASREDVPLGRYHTLTVEPGTVITIQKEKWKNYHIERLKEAIESSKKARVMIVAIEDGEAEIAIVREYGLDFVGSITYNISGKRYNIKRDDEEKKFFHEVAKSMEELMKRENIEKAIVAGPGFYKENFVNFLRENYPELAKKVVTDDTSMGGRTGIYEVIKRGTVDKVYTESRISKEIKLVEKVIEEIAKNGLVAYGLKEVEEATNYGAVETLIVLDSLLKGELREKIEELMELARNLRASVVVVSSEHEGGDKLKALGGIAALLRFKIK
